In patent publication US20210181109A1 (FUJIFILM Corporation, priority 2018, published 2021):
Like-named read-outs stand apart in the source and are kept apart here.

Assay: Average score of NAC and NAL depletion and prediction of skin allergenicity, fluorescence method
Method: The average value (Average Score) of NAC and NAL depletion percents is calculated. In the resultant value, the second decimal place is rounded off.
Average value (Average Score) of NAC and NAL depletion percents=(NAC depletion percent+NAL depletion percent)/2
The depletion percent of at least one of NAC or NAL or the average score of the depletion percents of NAC and NAL is calculated, and whether or not the test substances are “allergenic substances” or “non-allergenic substances” is determined:
(1) in a case of performing evaluation based on the average value of the depletion percent of NAC and the depletion percent of NAL,
In the following Tables, S represents as being an allergenic substance and NS represents as being a non-allergenic substance.

[1] = Fluorescence method, average of NAC and NAL depletion

| SMILES | Average score [1] | Average score |
| --- | --- | --- |
| CCCCO [1-Butanol] | 1.2 |  |
| CC(O)C(=O)O (centres unmarked) [Lactic acid] | 0.7 |  |
| CC(=O)C1CCCCC1=O (centres unmarked) [2-Acetylcyclohexanone] | 1.7 |  |
| CCCCCCCCC(=O)O [Nonanoic acid] | 0.0 |  |
| CCOC(=O)c1ccccc1C(=O)OCC [Diethyl phthalate] | 0.1 |  |
| O=c1ccc2ccccc2o1 [Coumarin] | 0.8 |  |
| CC(O)CO (centres unmarked) [Propylene glycol] | 2.8 |  |
| Nc1ccc(S(=O)(=O)O)cc1 [Sulfanilic acid] | 0.1 |  |
| COC(=O)c1ccccc1O [Methyl salicylate] | 0.1 |  |
| Clc1ccccc1 [Chlorobenzene] | 0.7 |  |
| Cc1ccc2oc(=O)ccc2c1 [6-Methylcoumarin] | 0.7 |  |
| CCCOC(=O)c1ccc(O)cc1 [Propylparaben] | 2.5 |  |
| ClC(Cl)c1ccccc1 [Benzylidene dichloride] | 1.7 |  |
| CCCCCCCCCCCCCC(=O)OC(C)C [Isopropyl myristate] | 3.1 |  |
| CC(C)O [Isopropanol] | 2.8 |  |
| CCCCCC [Hexane] |  | 0.0 |
| COc1ccc(C(C)=O)cc1 [4′-Methoxyacetophenone] | 0.6 |  |
| CCCCBr [1-Bromobutane] | 0.0 |  |
| COc1cc(C=O)ccc1O [Vanillin] | 1.0 |  |
| O=C(O)c1ccc(O)cc1 [4-Hydroxybenzoic acid] | 1.5 |  |
| COC(=O)c1ccc(O)cc1 [Methylparaben] | 2.7 |  |
| O=C(O)c1ccccc1O [Salicylic acid] | 2.2 |  |
| Nc1ccc(S(N)(=O)=O)cc1 [Sulfanilamide] | 2.1 |  |
| OCC(O)CO [Glycerol] | 0.1 |  |
| CCCCCCCC(=O)O [Octanoic acid] | 0.0 |  |
| C=C(C)C(=O)OCC(C)O (centres unmarked) [2-Hydroxypropyl methacrylate] | 1.1 |  |
